# Some of the results follow.
# B1: SHCBP1-GST (Homo sapiens), Q8NEM2 (protein)
# chain: MADGSLTGGGLEAAAMAPERMGWAVEQELASLEKGLFQDEDSCSDCSYRDKPGSSLQSFMPEGKTFFPEIFQTNQLLFYERFRAYQDYILADCKASEVQEFTAEFLEKVLEPSGWRAVWHTNVFKVLVEITDVDFAALKAVVRLAEPYLCDSQVSTFTMECMKELLDLKEHRLPLQELWVVFDDSGVFDQTALAIEHVRFFYQNIWRSWDEEEEDEYDYFVRCVEPRLRLHYDILEDRVPSGLIVDYHNLLSQCEESYRKFLNLRSSLSNCNSDSEQENISMVEGLKLYSEMEQLKQKLKLIENPLLRYVFGYQKNSNIQAKGVRSSGQKITHVVSSTMMAGLLRSLLTDRLCQEPGEEEREIQFHSDPLSAINACFEGDTVIVCPGHYVVHGTFSIADSIELEGYGLPDDIVIEKRGKGDTFVDCTGADIKISGIKFVQHDAVEGILIVHRGKTTLENCVLQCETTGVTVRTSAEFLMKNSDLYGAKGAGIEIYPGSQCTLSDNGIHHCKEGILIKDFLDEHYDIPKISMVNNIIHNNEGYGVVLVKPTIFSDLQENAEDGTEENKALKIQTSGEPDVAERVDLEELIECATGKMELCARTDPSEQVEGNCEIVNELIAASTQKGQIKKKRLSELGITQADDNLMSQEMFVGIVGNQFKWNGKGSFGTFLF
# Experiments:
# Test in all cases: glycan array binding signal (z-score within array); higher = stronger binding
# Conditions in all cases: glycan notation: IUPAC condensed, linker removed
# [1] = biological target: Fuc(a1-2)Gal6S(b1-3)GlcNAc
# In short: (§1)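 Glycan array data were curated from 3228 arrays in the Consortium for Functional Glycomics database and kept only where the protein sequence was available. Glycan names were converted to IUPAC-condensed notation, and columns mapping to the same glycan were averaged. The binding signal is a within-array Z-score, averaged across arrays of the same protein sequence at different concentrations or buffers and across linkers. Negative Z-scores can be read as non-binding.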
# [2] = biological target: Fuc(a1-2)Gal6S(b1-3)GlcNAc6S
# In short: as §1
# Fuc(a1-2)Gal6S(b1-4)Glc = biological target: Fuc(a1-2)Gal6S(b1-4)Glc
# In short: as §1
# [3] = biological target: Fuc(a1-2)Gal6S(b1-4)Glc6S
# In short: as §1
# Fuc(a1-2)[Gal(a1-3)]Gal = biological target: Fuc(a1-2)[Gal(a1-3)]Gal
# In short: as §1
# [4] = biological target: Fuc(a1-2)[Gal(a1-3)]Gal(b1-3)GalNAc
# In short: as §1
# [5] = biological target: Fuc(a1-2)[Gal(a1-3)]Gal(b1-3)GalNAc(b1-3)Gal(a1-4)Gal(b1-4)Glc
# In short: as §1
# [6] = biological target: Fuc(a1-2)[Gal(a1-3)]Gal(b1-3)GlcNAc
# In short: as §1
# [7] = biological target: Fuc(a1-2)[Gal(a1-3)]Gal(b1-3)GlcNAc(b1-2)Man(a1-3)[Fuc(a1-2)[Gal(a1-3)]Gal(b1-3)GlcNAc(b1-2)Man(a1-6)]Man(b1-4)GlcNAc(b1-4)GlcNAc
# In short: as §1
# [8] = biological target: Fuc(a1-2)[Gal(a1-3)]Gal(b1-3)GlcNAc(b1-2)Man(a1-3)[Fuc(a1-2)[Gal(a1-3)]Gal(b1-3)GlcNAc(b1-2)Man(a1-6)]Man(b1-4)GlcNAc(b1-4)[Fuc(a1-6)]GlcNAc
# In short: as §1
# [9] = biological target: Fuc(a1-2)[Gal(a1-3)]Gal(b1-3)GlcNAc(b1-3)GalNAc
# In short: as §1
# [10] = biological target: Fuc(a1-2)[Gal(a1-3)]Gal(b1-3)GlcNAc(b1-6)GalNAc
# In short: as §1
# [11] = biological target: Fuc(a1-2)[Gal(a1-3)]Gal(b1-4)Glc
# In short: as §1
# [12] = biological target: Fuc(a1-2)[Gal(a1-3)]Gal(b1-4)GlcNAc
# In short: as §1
# [13] = biological target: Fuc(a1-2)[Gal(a1-3)]Gal(b1-4)GlcNAc(b1-2)Man
# In short: as §1
# [14] = biological target: Fuc(a1-2)[Gal(a1-3)]Gal(b1-4)GlcNAc(b1-2)Man(a1-3)[Fuc(a1-2)[Gal(a1-3)]Gal(b1-4)GlcNAc(b1-2)Man(a1-6)]Man(b1-4)GlcNAc(b1-4)GlcNAc
# In short: as §1
# [15] = biological target: Fuc(a1-2)[Gal(a1-3)]Gal(b1-4)GlcNAc(b1-2)Man(a1-3)[Fuc(a1-2)[Gal(a1-3)]Gal(b1-4)GlcNAc(b1-2)Man(a1-6)]Man(b1-4)GlcNAc(b1-4)[Fuc(a1-6)]GlcNAc
# In short: as §1
# [16] = biological target: Fuc(a1-2)[Gal(a1-3)]Gal(b1-4)GlcNAc(b1-3)GalNAc
# In short: as §1
# [17] = biological target: Fuc(a1-2)[Gal(a1-3)]Gal(b1-4)GlcNAc(b1-3)[Fuc(a1-2)[Gal(a1-3)]Gal(b1-4)GlcNAc(b1-6)]GalNAc
# In short: as §1
# [18] = biological target: Fuc(a1-2)[Gal(a1-3)]Gal(b1-4)GlcNAc(b1-6)GalNAc
# In short: as §1
# [19] = biological target: Fuc(a1-2)[Gal(a1-3)]Gal(b1-4)[Fuc(a1-3)]Glc
# In short: as §1
# [20] = biological target: Fuc(a1-2)[Gal(a1-3)]Gal(b1-4)[Fuc(a1-3)]GlcNAc
# In short: as §1
# [21] = biological target: Fuc(a1-2)[Gal(a1-3)]Gal(b1-4)[Fuc(a1-3)]GlcNAc(b1-3)GalNAc
# In short: as §1
# [22] = biological target: Fuc(a1-2)[Gal(a1-4)]Gal(b1-4)GlcNAc
# In short: as §1
# [23] = biological target: Fuc(a1-2)[GalNAc(a1-3)]Gal
# In short: as §1
# [24] = biological target: Fuc(a1-2)[GalNAc(a1-3)]Gal(b1-3)GalNAc(a1-3)[Fuc(a1-2)]Gal(b1-4)GlcNAc
# In short: as §1
# [25] = biological target: Fuc(a1-2)[GalNAc(a1-3)]Gal(b1-3)GalNAc(b1-3)Gal(a1-4)Gal(b1-4)Glc
# In short: as §1
# [26] = biological target: Fuc(a1-2)[GalNAc(a1-3)]Gal(b1-3)GlcNAc
# In short: as §1
# [27] = biological target: Fuc(a1-2)[GalNAc(a1-3)]Gal(b1-3)GlcNAc(b1-2)Man(a1-3)[Fuc(a1-2)[GalNAc(a1-3)]Gal(b1-3)GlcNAc(b1-2)Man(a1-6)]Man(b1-4)GlcNAc(b1-4)GlcNAc
# In short: as §1
# [28] = biological target: Fuc(a1-2)[GalNAc(a1-3)]Gal(b1-3)GlcNAc(b1-2)Man(a1-3)[Fuc(a1-2)[GalNAc(a1-3)]Gal(b1-3)GlcNAc(b1-2)Man(a1-6)]Man(b1-4)GlcNAc(b1-4)[Fuc(a1-6)]GlcNAc
# In short: as §1
# [29] = biological target: Fuc(a1-2)[GalNAc(a1-3)]Gal(b1-3)GlcNAc(b1-3)GalNAc
# In short: as §1
# [30] = biological target: Fuc(a1-2)[GalNAc(a1-3)]Gal(b1-3)GlcNAc(b1-6)GalNAc
# In short: as §1
# [31] = biological target: Fuc(a1-2)[GalNAc(a1-3)]Gal(b1-4)Glc
# In short: as §1
# [32] = biological target: Fuc(a1-2)[GalNAc(a1-3)]Gal(b1-4)GlcNAc
# In short: as §1
# [33] = biological target: Fuc(a1-2)[GalNAc(a1-3)]Gal(b1-4)GlcNAc(b1-2)Man
# In short: as §1
# [34] = biological target: Fuc(a1-2)[GalNAc(a1-3)]Gal(b1-4)GlcNAc(b1-2)Man(a1-3)[Fuc(a1-2)[GalNAc(a1-3)]Gal(b1-4)GlcNAc(b1-2)Man(a1-6)]Man(b1-4)GlcNAc(b1-4)GlcNAc
# In short: as §1
# [35] = biological target: Fuc(a1-2)[GalNAc(a1-3)]Gal(b1-4)GlcNAc(b1-2)Man(a1-3)[Fuc(a1-2)[GalNAc(a1-3)]Gal(b1-4)GlcNAc(b1-2)Man(a1-6)]Man(b1-4)GlcNAc(b1-4)[Fuc(a1-6)]GlcNAc
# In short: as §1
# [36] = biological target: Fuc(a1-2)[GalNAc(a1-3)]Gal(b1-4)GlcNAc(b1-3)Gal(b1-4)GlcNAc
# In short: as §1
# [37] = biological target: Fuc(a1-2)[GalNAc(a1-3)]Gal(b1-4)GlcNAc(b1-3)Gal(b1-4)GlcNAc(b1-3)Gal(b1-4)GlcNAc
# In short: as §1
# [38] = biological target: Fuc(a1-2)[GalNAc(a1-3)]Gal(b1-4)GlcNAc(b1-3)GalNAc
# In short: as §1
# [39] = biological target: Fuc(a1-2)[GalNAc(a1-3)]Gal(b1-4)GlcNAc(b1-3)[Fuc(a1-2)[GalNAc(a1-3)]Gal(b1-4)GlcNAc(b1-6)]GalNAc
# In short: as §1
# [40] = biological target: Fuc(a1-2)[GalNAc(a1-3)]Gal(b1-4)GlcNAc(b1-6)GalNAc
# In short: as §1
# [41] = biological target: Fuc(a1-2)[GalNAc(a1-3)]Gal(b1-4)[Fuc(a1-3)]GlcNAc
# In short: as §1
# [42] = biological target: Fuc(a1-2)[GalNAc(a1-3)]Gal(b1-4)[Fuc(a1-3)]GlcNAc(b1-3)GalNAc
# In short: as §1
# [43] = biological target: Fuc(a1-2)[GalNAc(a1-4)]Gal(b1-4)GlcNAc
# In short: as §1
binder,measurement,setting,value
B1,glycan array binding signal (z-score),[1],-0.631
same,glycan array binding signal (z-score),[2],0.871
same,glycan array binding signal (z-score),Fuc(a1-2)Gal6S(b1-4)Glc,-0.588
same,glycan array binding signal (z-score),[3],-1.23
same,glycan array binding signal (z-score),Fuc(a1-2)[Gal(a1-3)]Gal,-0.274
same,glycan array binding signal (z-score),[4],-0.106
same,glycan array binding signal (z-score),[5],-0.847
same,glycan array binding signal (z-score),[6],-0.247
same,glycan array binding signal (z-score),[7],-0.019
same,glycan array binding signal (z-score),[8],-0.945
same,glycan array binding signal (z-score),[9],0.014
same,glycan array binding signal (z-score),[10],-0.394
same,glycan array binding signal (z-score),[11],0.71
same,glycan array binding signal (z-score),[12],-0.089
same,glycan array binding signal (z-score),[13],0.257
same,glycan array binding signal (z-score),[14],0.255
same,glycan array binding signal (z-score),[15],-1.18
same,glycan array binding signal (z-score),[16],0.533
same,glycan array binding signal (z-score),[17],-0.22
same,glycan array binding signal (z-score),[18],0.568
same,glycan array binding signal (z-score),[19],-0.299
same,glycan array binding signal (z-score),[20],0.298
same,glycan array binding signal (z-score),[21],-0.227
same,glycan array binding signal (z-score),[22],-0.369
same,glycan array binding signal (z-score),[23],-0.748
same,glycan array binding signal (z-score),[24],-0.425
same,glycan array binding signal (z-score),[25],0.789
same,glycan array binding signal (z-score),[26],-0.199
same,glycan array binding signal (z-score),[27],-0.355
same,glycan array binding signal (z-score),[28],1.07
same,glycan array binding signal (z-score),[29],0.472
same,glycan array binding signal (z-score),[30],-0.883
same,glycan array binding signal (z-score),[31],-1.04
same,glycan array binding signal (z-score),[32],-0.701
same,glycan array binding signal (z-score),[33],0.004
same,glycan array binding signal (z-score),[34],0.13
same,glycan array binding signal (z-score),[35],-0.058
same,glycan array binding signal (z-score),[36],0.165
same,glycan array binding signal (z-score),[37],0.425
same,glycan array binding signal (z-score),[38],0.204
same,glycan array binding signal (z-score),[39],-0.947
same,glycan array binding signal (z-score),[40],-0.21
same,glycan array binding signal (z-score),[41],0.76
same,glycan array binding signal (z-score),[42],1.16
same,glycan array binding signal (z-score),[43],-0.194

# Three records drawn at random from the list so far:
binder,measurement,setting,value
B1,glycan array binding signal (z-score),[27],-0.355
same,glycan array binding signal (z-score),[24],-0.425
same,glycan array binding signal (z-score),[11],0.71
